Source: patent US11155580B2, “Modified proteins and methods of use thereof” (YALE UNIVERSITY, priority 2013, dated 2021)
Entries after “also recorded” stand apart in the source; their conditions may differ. Not every detail of the peptide structures is certain; ends, links or a residue may be inferred. Some entries repeat one wording, which the source may state once for all of them. Where a SMILES comes first, the peptide text is derived from it. The star is where a group is joined. X2 = C[C@@H]1C[C@H]2[C@@H]3CCC4=CC(=O)C=C[C@]4(C)[C@@]3(F)[C@@H](O)C[C@]2(C)[C@@]1(O)C(=O)CSCCC(=O)*

Experiments:
U2OS(GIGI) cells = assay: GIGI in lysates, stably transfected U2OS(GIGI) cells; assay type: cell-based
Excerpt: RFUs are expressed±standard deviation (Excel). The maximum induction level is defined as RFUmax. Data were processed using Kaleidagraph and GraphPad Prism software. RFU=([I530]/[I580])−([I′530]/[I′580]) (1)
Y=Ymin+(Ymax−Ymin)/(1+10^logEC50-X) (2)

Saos-2(GIGT) cells = assay: GIGT high-content imaging in stably transfected Saos-2(GIGT) cells; assay type: cell-based, human; conditions: 1 μM, 30 min
Method: Saos2(GIGT) cells were plated onto 384-well plates (2,500 cells/well) in 40 μL of full McCoy's 5A and allowed to adhere overnight. […] Following treatment, cells were fixed with 4% paraformaldehyde for 20 min at room temperature and washed with PBS. […] Translocation ratios were determined using Acapella high content imaging and analysis software, with a script that processed the images in a manner similar to the CellProfiler pipeline described in the Supporting Information. Each data point represents 30-60 images containing over 100 cells.

[1] = test system: HeLa cells transfected with GR-GFP; assay: GR-GFP translocation assay (cytosolic access of Dex-labeled molecules); assay type: cell-based; conditions: 1 μM, 30 min, HeLa cells expressing GR-GFP
Method: HeLa cells transfected with pK7-GR-GFP were plated in Matrical plates as described above. To label nuclei, the media was replaced with HKR buffer containing 300 nM Hoescht and the cells incubated for 30 min at 37° C.
Cells were then analyzed as described above.
HeLa cells transfected with pK7-GR-GFP for 24-36 hr were plated (10^4/well in 200 μL) the day prior to experiments in 96 well glass bottom plates (Matrical). The media was replaced with HKR buffer containing 300 nM Hoescht and the cells incubated for 30 min at 37° C. […] The cells were incubated for a further 30 min at 37° C. before epifluorescence imaging using a Zeiss Axiovert 200M microscope fitted with a mRM digital camera, a 63×1.3NA PlanApo objective and an EXFO-Excite illumination source.
Uptake was allowed to proceed for an additional 30 min at 37° C. before analysis by epifluorescence images as described elsewhere herein.
The image analysis algorithm used by CellProfiler is customizable and contained within a ‘Pipeline’ that describes a series of image manipulation and evaluation steps, such as reading the image, adjusting the intensity, and identifying objects. Each step has several options. […] Using the image of Hoescht fluorescence and Otsu's method of automatic thresholding, nuclei were identified and segmented using 3 class thresholding. The middle class was assigned to background. […]

Gal4-GR★-VP16 = assay: GIGI in lysates, transient transfection with Gal4-GR★-VP16; assay type: cell-based; conditions: transiently transfected HeLa cells, 24 h
GR★-GFP = assay: GIGT, transient transfection with GR★-GFP; assay type: cell-based; conditions: 500 nM, 30 min, HeLa cells

SMILES | eGFP expression (U2OS(GIGI) cells; 1 μM) | EC50 (U2OS(GIGI) cells; Dex-labeled peptides, 24 h, read-out: EC50 (eGFP expression, GIGI)) [nM] | translocation ratio (TR), GR★-GFP (Saos-2(GIGT) cells) | translocation ratio (TR) [1] | eGFP expression (Gal4-GR★-VP16) | translocation ratio (TR), GR★-GFP (GR★-GFP)
CC[C@H](C)[C@H](NC(=O)[C@H](CC(C)C)NC(=O)[C@H](CC(=O)O)NC(=O)[C@H](CCC(=O)O)NC(=O)[C@@H](NC(=O)[C@@H]1CCCN1C(=O)[C@H](C)NC(=O)[C@H](CC(=O)O)NC(=O)[C@H](CC(=O)O)NC(=O)CNC(=O)[C@@H]1CCCN1C(=O)[C@H](Cc1ccc(O)cc1)NC(=O)[C@@H](NC(=O)[C@@H]1CCCN1C(=O)[C@H](CCC(N)=O)NC(=O)[C@H](CO)NC(=O)[C@@H]1CCCN1C(=O)CNC(=O)[C@@H](N)CCCCNC(=O)CCSCC(=O)[C@@]1(O)[C@H](C)C[C@H]2[C@@H]3CCC4=CC(=O)C=C[C@]4(C)[C@@]3(F)[C@@H](O)C[C@@]21C)[C@@H](C)O)C(C)C)C(=O)N[C@@H](CCCNC(=N)N)C(=O)N[C@@H](Cc1ccccc1)C(=O)N[C@@H](Cc1ccc(O)cc1)C(=O)N[C@@H](CCCNC(=N)N)C(=O)N[C@@H](CC(=O)O)C(=O)N[C@@H](CC(C)C)C(=O)N[C@@H](CCCNC(=N)N)C(=O)N[C@@H](CCCNC(=N)N)C(=O)N[C@@H](Cc1ccc(O)cc1)C(=O)N[C@@H](CC(C)C)C(=O)N[C@@H](CC(N)=O)C(=O)N[C@H](C(=O)N[C@H](C(=O)N[C@H](C(=O)N[C@@H](CCCNC(=N)N)C(=O)N[C@@H](Cc1c[nH]cn1)C(=O)N[C@@H](CCCNC(=N)N)C(=O)N[C@@H](Cc1ccc(O)cc1)C(N)=O)[C@@H](C)O)C(C)C)C(C)C [4.3Dex] (H-K(X2)GPSQPTYPGDDAPVEDLIRFYRDLRRYLNVVTRHRY-NH2) | significant eGFP expression | 482 | 3.79±0.29 | 1.92±0.10 | did not induce eGFP expression; also recorded: do not induce eGFP expression | –
CC[C@H](C)[C@H](NC(=O)[C@H](CC(C)C)NC(=O)[C@H](CC(=O)O)NC(=O)[C@H](CCCNC(=N)N)NC(=O)[C@@H](NC(=O)[C@@H]1CCCN1C(=O)[C@H](C)NC(=O)[C@H](CC(=O)O)NC(=O)[C@H](CC(=O)O)NC(=O)CNC(=O)[C@@H]1CCCN1C(=O)[C@H](Cc1ccc(O)cc1)NC(=O)[C@@H](NC(=O)[C@@H]1CCCN1C(=O)[C@H](CCC(N)=O)NC(=O)[C@H](CO)NC(=O)[C@@H]1CCCN1C(=O)CNC(=O)[C@@H](N)CCCCNC(=O)CCSCC(=O)[C@@]1(O)[C@H](C)C[C@H]2[C@@H]3CCC4=CC(=O)C=C[C@]4(C)[C@@]3(F)[C@@H](O)C[C@@]21C)[C@@H](C)O)C(C)C)C(=O)N[C@@H](CCCNC(=N)N)C(=O)N[C@@H](Cc1ccccc1)C(=O)N[C@@H](Cc1ccc(O)cc1)C(=O)N[C@@H](CCCNC(=N)N)C(=O)N[C@@H](CC(=O)O)C(=O)N[C@@H](CC(C)C)C(=O)N[C@@H](CCC(N)=O)C(=O)N[C@@H](CCCNC(=N)N)C(=O)N[C@@H](Cc1ccc(O)cc1)C(=O)N[C@@H](CC(C)C)C(=O)N[C@@H](CCCNC(=N)N)C(=O)N[C@H](C(=O)N[C@H](C(=O)N[C@H](C(=O)N[C@@H](CCCNC(=N)N)C(=O)N[C@@H](Cc1c[nH]cn1)C(=O)N[C@@H](CCCNC(=N)N)C(=O)N[C@@H](Cc1ccc(O)cc1)C(N)=O)[C@@H](C)O)C(C)C)C(C)C [5.2Dex] (H-K(X2)GPSQPTYPGDDAPVRDLIRFYRDLQRYLRVVTRHRY-NH2) | – | – | – | – | – | 1.86±0.36
CC[C@H](C)[C@H](NC(=O)[C@H](CC(C)C)NC(=O)[C@H](CC(=O)O)NC(=O)[C@H](CCCNC(=N)N)NC(=O)[C@@H](NC(=O)[C@@H]1CCCN1C(=O)[C@H](C)NC(=O)[C@H](CC(=O)O)NC(=O)[C@H](CC(=O)O)NC(=O)CNC(=O)[C@@H]1CCCN1C(=O)[C@H](Cc1ccc(O)cc1)NC(=O)[C@@H](NC(=O)[C@@H]1CCCN1C(=O)[C@H](CCC(N)=O)NC(=O)[C@H](CO)NC(=O)[C@@H]1CCCN1C(=O)CNC(=O)[C@@H](N)CCCCNC(=O)CCSCC(=O)[C@@]1(O)[C@H](C)C[C@H]2[C@@H]3CCC4=CC(=O)C=C[C@]4(C)[C@@]3(F)[C@@H](O)C[C@@]21C)[C@@H](C)O)C(C)C)C(=O)N[C@@H](CCCNC(=N)N)C(=O)N[C@@H](Cc1ccccc1)C(=O)N[C@@H](Cc1ccc(O)cc1)C(=O)N[C@@H](CCCNC(=N)N)C(=O)N[C@@H](CC(=O)O)C(=O)N[C@@H](CC(C)C)C(=O)N[C@@H](CCCNC(=N)N)C(=O)N[C@@H](CCCNC(=N)N)C(=O)N[C@@H](Cc1ccc(O)cc1)C(=O)N[C@@H](CC(C)C)C(=O)N[C@@H](CC(N)=O)C(=O)N[C@H](C(=O)N[C@H](C(=O)N[C@H](C(=O)N[C@@H](CCCNC(=N)N)C(=O)N[C@@H](Cc1c[nH]cn1)C(=O)N[C@@H](CCCNC(=N)N)C(=O)N[C@@H](Cc1ccc(O)cc1)C(N)=O)[C@@H](C)O)C(C)C)C(C)C [5.3Dex] (H-K(X2)GPSQPTYPGDDAPVRDLIRFYRDLRRYLNVVTRHRY-NH2) | – | – | – | – | – | 2.79±0.39
